This is an account of results in PMC11775015, “Parishin B blocking TRIB3-AKT1 interaction inhibits breast cancer lung metastasis” (Frontiers in Pharmacology, 2025).

Protein sequences, listed by entry. Tags and fused reporters are not part of them.
UniProt Q96RU7: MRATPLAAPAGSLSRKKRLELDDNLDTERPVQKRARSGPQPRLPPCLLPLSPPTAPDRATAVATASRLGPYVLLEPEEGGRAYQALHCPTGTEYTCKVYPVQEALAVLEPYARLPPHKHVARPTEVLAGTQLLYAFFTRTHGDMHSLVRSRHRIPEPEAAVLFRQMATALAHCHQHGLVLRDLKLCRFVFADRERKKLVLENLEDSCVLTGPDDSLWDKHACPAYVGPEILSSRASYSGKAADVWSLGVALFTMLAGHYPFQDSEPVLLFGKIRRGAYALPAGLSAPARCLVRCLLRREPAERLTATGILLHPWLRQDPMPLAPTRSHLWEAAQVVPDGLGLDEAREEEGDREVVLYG
UniProt P31749: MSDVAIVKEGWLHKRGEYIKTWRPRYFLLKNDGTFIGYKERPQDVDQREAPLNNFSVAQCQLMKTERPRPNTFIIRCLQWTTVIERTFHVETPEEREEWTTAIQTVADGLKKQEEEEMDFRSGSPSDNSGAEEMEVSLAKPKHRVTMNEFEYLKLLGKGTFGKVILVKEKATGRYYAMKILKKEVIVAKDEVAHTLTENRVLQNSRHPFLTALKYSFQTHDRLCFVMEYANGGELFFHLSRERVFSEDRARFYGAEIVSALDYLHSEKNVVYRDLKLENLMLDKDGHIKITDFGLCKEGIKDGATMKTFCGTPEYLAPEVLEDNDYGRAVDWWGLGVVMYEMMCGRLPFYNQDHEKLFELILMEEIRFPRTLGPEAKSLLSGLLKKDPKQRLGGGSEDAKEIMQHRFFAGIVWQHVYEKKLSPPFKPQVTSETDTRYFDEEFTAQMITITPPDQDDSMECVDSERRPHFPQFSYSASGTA

These are yes or no findings as the source states them, for the method shown. In cells and extracts the contact can be indirect. Some results given as binding are weak or reduced against the parent protein; the word gives no strength.

Experiment [1] addresses Tribbles homolog 3 (TRIB3) (human (endogenous in MDA-MB-231)) (UniProt Q96RU7). As to the kind of experiment: co-IP; MDA-MB-231 cells treated with DMSO for 24 h, lysed in RIPA buffer with PMSF; immunoprecipitation with anti-TRIB3 or anti-AKT1 antibody, Protein A/G agarose beads, Western blot.
Experiment [2] has the same target. Put plainly: condition: only cells treated with 20 μM PB for 24 h; co-IP; MDA-MB-231 cells treated with 20 μM Parishin B (PB) for 24 h, lysed in RIPA buffer with PMSF; immunoprecipitation with anti-TRIB3 or anti-AKT1 antibody, Protein A/G agarose beads, Western blot. Background: Immunoblotting shows a protein as a band on a membrane.

Take AKT1 (from UniProt P31749 1-480): the binding entry in experiment [1] is “binds”; in experiment [2], “no binding”.
